No constants are given. Whether binding was seen depends on the method and setting. In cells and extracts the contact can be indirect. Some binding calls cover weakened binding; strength is not graded here.

Amino acid sequences for entries named in this document (tags omitted). Residues count along the entry.
UniProt P08581, residues 25-1390: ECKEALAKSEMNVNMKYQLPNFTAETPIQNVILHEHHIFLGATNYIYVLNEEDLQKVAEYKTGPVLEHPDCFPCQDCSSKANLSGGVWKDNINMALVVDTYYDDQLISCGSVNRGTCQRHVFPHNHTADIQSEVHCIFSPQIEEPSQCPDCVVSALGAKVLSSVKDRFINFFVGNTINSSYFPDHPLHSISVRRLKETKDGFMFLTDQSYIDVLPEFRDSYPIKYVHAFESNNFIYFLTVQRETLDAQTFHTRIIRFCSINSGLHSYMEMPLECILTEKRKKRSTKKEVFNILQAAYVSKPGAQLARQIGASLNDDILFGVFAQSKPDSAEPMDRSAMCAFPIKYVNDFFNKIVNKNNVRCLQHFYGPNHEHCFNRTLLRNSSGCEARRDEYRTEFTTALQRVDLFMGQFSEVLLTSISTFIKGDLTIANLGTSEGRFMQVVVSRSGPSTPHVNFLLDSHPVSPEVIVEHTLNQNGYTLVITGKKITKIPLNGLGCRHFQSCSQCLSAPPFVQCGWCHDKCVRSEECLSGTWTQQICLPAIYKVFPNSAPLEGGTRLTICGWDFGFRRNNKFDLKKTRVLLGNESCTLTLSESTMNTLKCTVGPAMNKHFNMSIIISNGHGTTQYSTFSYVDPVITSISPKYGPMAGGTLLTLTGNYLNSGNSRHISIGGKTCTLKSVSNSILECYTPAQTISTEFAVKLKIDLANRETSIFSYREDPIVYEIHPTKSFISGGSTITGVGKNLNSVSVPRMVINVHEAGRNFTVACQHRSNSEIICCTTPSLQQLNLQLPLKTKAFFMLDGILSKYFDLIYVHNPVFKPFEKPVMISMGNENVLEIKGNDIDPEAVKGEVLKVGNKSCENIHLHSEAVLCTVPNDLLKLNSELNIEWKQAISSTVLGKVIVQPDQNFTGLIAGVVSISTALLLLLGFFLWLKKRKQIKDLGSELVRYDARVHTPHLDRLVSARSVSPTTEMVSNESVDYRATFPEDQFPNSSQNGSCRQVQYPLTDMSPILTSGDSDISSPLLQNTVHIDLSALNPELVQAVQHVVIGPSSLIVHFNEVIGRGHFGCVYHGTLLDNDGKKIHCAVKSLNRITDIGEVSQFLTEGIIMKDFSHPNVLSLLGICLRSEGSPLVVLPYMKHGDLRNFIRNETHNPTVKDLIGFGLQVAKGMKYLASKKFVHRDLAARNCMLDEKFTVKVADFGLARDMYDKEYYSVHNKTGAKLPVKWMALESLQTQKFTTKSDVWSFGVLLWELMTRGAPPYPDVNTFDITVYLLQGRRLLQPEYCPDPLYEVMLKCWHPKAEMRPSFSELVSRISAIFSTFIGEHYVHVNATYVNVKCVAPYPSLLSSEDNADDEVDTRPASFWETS

The record followed here is publication PMC5085148.

The test has as its target c-Met (hepatocyte growth factor receptor, HGFR) (human (endogenous in AGS and HGC-27)) (UniProt P08581). Put plainly: co-IP; lysates (RIPA buffer) of AGS and HGC-27 cells infected with Ad-PKG II and stimulated with 8-pCPT-cGMP (250 uM, 1 h; the legend adds HGF 50 ng/ml, 10 min); immunoprecipitated with anti-c-Met antibody and probed for PKG II, and with anti-PKG II antibody and probed for c-Met; isotype-matched IgG as control; 4°C.

B1: type II cGMP-dependent protein kinase G (PKG II) (enzyme, UniProt Q13237 1-762)
chain: MGNGSVKPKHSKHPDGHSGNLTTDALRNKVTELERELRRKDAEIQEREYHLKELREQLSKQTVAIAELTEELQNKCIQLNKLQDVVHMQGGSPLQASPDKVPLEVHRKTSGLVSLHSRRGAKAGVSAEPTTRTYDLNKPPEFSFEKARVRKDSSEKKLITDALNKNQFLKRLDPQQIKDMVECMYGRNYQQGSYIIKQGEPGNHIFVLAEGRLEVFQGEKLLSSIPMWTTFGELAILYNCTRTASVKAITNVKTWALDREVFQNIMRRTAQARDEQYRNFLRSVSLLKNLPEDKLTKIIDCLEVEYYDKGDYIIREGEEGSTFFILAKGKVKVTQSTEGHDQPQLIKTLQKGEYFGEKALISDDVRSANIIAEENDVACLVIDRETFNQTVGTFEELQKYLEGYVANLNRDDEKRHAKRSMSNWKLSKALSLEMIQLKEKVARFSSSSPFQNLEIIATLGVGGFGRVELVKVKNENVAFAMKCIRKKHIVDTKQQEHVYSEKRILEELCSPFIVKLYRTFKDNKYVYMLLEACLGGELWSILRDRGSFDEPTSKFCVACVTEAFDYLHRLGIIYRDLKPENLILDAEGYLKLVDFGFAKKIGSGQKTWTFCGTPEYVAPEVILNKGHDFSVDFWSLGILVYELLTGNPPFSGVDQMMTYNLILKGIEKMDFPRKITRRPEDLIRRLCRQNPTERLGNLKNGINDIKKHRWLNGFNWEGLKARSLPSPLQRELKGPIDHSYFDKYPPEKGMPPDELSGWDKDF
Consider B1, for which the binding result is “binds”.
